Results: patent US12691112B2, “FGFR tyrosine kinase inhibitors for the treatment of urothelial carcinoma” (Janssen Pharmaceutica NV, priority 2019, dated 2026)
Read-outs that look alike come from different tables or passages of the source.

Amino acid sequences for entries named in this document (tags omitted).
UniProt P11712, whole entry: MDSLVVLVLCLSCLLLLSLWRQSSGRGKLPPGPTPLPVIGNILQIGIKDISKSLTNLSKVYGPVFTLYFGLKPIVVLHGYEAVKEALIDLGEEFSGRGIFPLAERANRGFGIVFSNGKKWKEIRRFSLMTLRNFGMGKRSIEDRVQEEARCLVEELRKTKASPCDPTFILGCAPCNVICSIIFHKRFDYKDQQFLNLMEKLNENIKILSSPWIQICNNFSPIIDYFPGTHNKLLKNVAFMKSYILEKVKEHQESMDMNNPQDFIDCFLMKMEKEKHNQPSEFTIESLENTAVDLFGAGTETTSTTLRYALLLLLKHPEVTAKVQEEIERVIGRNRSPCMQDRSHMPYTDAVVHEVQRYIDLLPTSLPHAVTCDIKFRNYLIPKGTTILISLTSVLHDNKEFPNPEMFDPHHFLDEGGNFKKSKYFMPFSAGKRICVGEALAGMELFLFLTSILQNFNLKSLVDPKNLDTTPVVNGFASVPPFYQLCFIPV
UniProt P08684, whole entry: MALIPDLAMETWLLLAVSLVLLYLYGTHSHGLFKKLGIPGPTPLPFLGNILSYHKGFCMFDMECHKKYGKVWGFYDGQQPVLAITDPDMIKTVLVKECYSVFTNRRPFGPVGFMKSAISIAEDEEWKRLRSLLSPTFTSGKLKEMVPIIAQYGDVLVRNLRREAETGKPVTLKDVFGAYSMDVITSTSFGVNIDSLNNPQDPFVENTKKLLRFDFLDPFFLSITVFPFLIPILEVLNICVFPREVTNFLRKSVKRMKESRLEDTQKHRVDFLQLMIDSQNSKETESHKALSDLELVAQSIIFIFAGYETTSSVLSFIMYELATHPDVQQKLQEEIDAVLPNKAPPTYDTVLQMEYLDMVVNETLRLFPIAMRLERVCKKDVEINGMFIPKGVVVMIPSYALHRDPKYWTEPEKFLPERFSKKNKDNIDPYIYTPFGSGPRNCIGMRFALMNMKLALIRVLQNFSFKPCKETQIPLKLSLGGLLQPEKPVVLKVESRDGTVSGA

Experiments:
[1] = tested on: metastatic or surgically unresectable urothelial cancer harboring select FGFR genetic alterations; conditions: for Duration of response, median (95% CI): chemo relapsed/refractory
Text: The study comprises a Screening Phase (molecular screening at any time prior to first dose and study screening within 30 days of first dose), a treatment phase, and a post-treatment follow-up phase. The treatment phase comprises the period from first dose until the end-of-treatment visit. The follow-up phase extends until the subject has died, withdraws consent, is lost to follow-up, or the end of study, whichever comes first.
Included patients were adults with measurable urothelial cancer per Response Evaluation Criteria in Solid Tumors version 1.1.
Patients were required to have at least 1 FGFR2/FGFR3 mutation or fusion per central lab testing of RNA from formalin-fixed, paraffin-embedded tumor samples, using a custom reverse transcriptase polymerase chain reaction assay.
Patients were contacted every 12 weeks for survival assessment.
The study was designed to enroll 180 patients with specified FGFR alterations. Of these, ≥88 were required in the selected regimen. […] Responses were assessed by investigators and an independent radiological review committee. Progression-free survival and overall survival were estimated using Kaplan-Meier product limit method. Data from patients who were progression free and alive or with unknown status were censored at last tumor assessment. Efficacy end points were analysed at primary analysis cut-off.

CYP2C9 = CYP2C9 (Homo sapiens, UniProt P11712); conditions: estimated
[2] = tested on: subjects with metastatic or surgically unresectable urothelial cancer; conditions: for Nail discoloration, any grade / Nail discoloration, grade 1 / Nail discoloration, grade 2 / Nail discoloration, grade ≥ 3: all-causality
CYP3A4 = CYP3A4 (Homo sapiens, UniProt P08684); conditions: estimated
[3] = treatment-related, 10 mg Intermittent, Regimen 1 (n = 33)

COc1cc(OC)cc(N(CCNC(C)C)c2ccc3ncc(-c4cnn(C)c4)nc3c2)c1 [erdafitinib, N-(3,5-dimethoxy-phenyl)-N′-(1-methylethyl)-N-[3-(1-methyl-1H-pyrazol-4-yl)quinoxalin-6-yl]ethane-1,2-diamine]
Duration of response, median (95% CI) ([1]; 6 mg QD, FGFR fusions (excluding mutations), 2 responders): 9.20 (4.17, 14.23) months
Duration of response, median (95% CI) ([1]; 6 mg QD, FGFR mutations (excluding fusions), 22 responders): 4.53 (4.01, 7.79) months
Duration of response, median (95% CI) ([1]; 6 mg QD, FGFR mutations and fusions, 3 responders): 11.27 (4.17, NE) months
Duration of response, median (95% CI) ([1]; 8 mg QD, FGFR fusions (excluding mutations), 4 responders): NE (2.96, NE)
Duration of response, median (95% CI) ([1]; 8 mg QD, FGFR mutations (excluding fusions), 31 responders): 5.55 (4.21, 7.00) months
Duration of response, median (95% CI) ([1]; 10 mg 7 on/7 off, FGFR mutations (excluding fusions), 5 responders): 13.37 (4.17, 19.45) months
Duration of response, median (95% CI) ([1]; 10 mg 7 on/7 off, FGFR mutations and fusions, 1 responder): 4.34 (NE, NE) months
Median duration of response ([1]; Regimen 3, 8 mg continuous (n=99)): 5.6 mo
Duration of response, median (95% CI) ([1]; Total (all 3 regimens), FGFR fusions (excluding mutations), 6 responders): 9.40 (2.96, 14.23) months
Duration of response, median (95% CI) ([1]; Total (all 3 regimens), FGFR mutations and fusions, 4 responders): 7.80 (4.17, NE) months
contribution of CYP2C9 in the total clearance (CYP2C9): 39%
Serious treatment-emergent: General disorders/administration site conditions ([2]; 6 mg continuous, n = 78): 7 (9) no. (%)
Serious treatment-emergent: General physical health deterioration ([2]; 6 mg continuous, n = 78): 2 (3) no. (%)
Serious treatment-emergent: General disorders/administration site conditions ([2]; 8 mg continuous, n = 99): 8 (8) no. (%)
Serious treatment-emergent: General physical health deterioration ([2]; 8 mg continuous, n = 99): 3 (3) no. (%)
Treatment-related Nail discoloration, any grade ([2]; 8 mg continuous, n = 99): 11 (11) no. (%)
Treatment-related Nail discoloration, grade 1 ([2]; 8 mg continuous, n = 99): 8 (8) no. (%)
Treatment-related Nail discoloration, grade 2 ([2]; 8 mg continuous, n = 99): 3 (3) no. (%)
Treatment-related Nail discoloration, grade 3 ([2]; 8 mg continuous, n = 99): 0 no. (%)
Serious treatment-emergent: General disorders/administration site conditions ([2]; 10 mg intermittent, n = 33): 1 (3) no. (%)
Serious treatment-emergent: General physical health deterioration ([2]; 10 mg intermittent, n = 33): 1 (3) no. (%)
Nail discoloration, any grade ([2]; 6 mg continuous, n = 78): 8 no.
Nail discoloration, grade 1 ([2]; 6 mg continuous, n = 78): 6 no.
Nail discoloration, grade 2 ([2]; 6 mg continuous, n = 78): 2 no.
Nail discoloration, grade ≥ 3 ([2]; 6 mg continuous, n = 78): 0 no.
Nail discoloration, any grade ([2]; 8 mg continuous, n = 99): 11 no.
Nail discoloration, grade 1 ([2]; 8 mg continuous, n = 99): 8 no.
Nail discoloration, grade 2 ([2]; 8 mg continuous, n = 99): 3 no.
Nail discoloration, grade ≥ 3 ([2]; 8 mg continuous, n = 99): 0 no.
Nail discoloration, any grade ([2]; 10 mg intermittent, n = 33): 1 no.
Nail discoloration, grade 1 ([2]; 10 mg intermittent, n = 33): 0 no.
Nail discoloration, grade 2 ([2]; 10 mg intermittent, n = 33): 1 no.
Nail discoloration, grade ≥ 3 ([2]; 10 mg intermittent, n = 33): 0 no.
Patients with Nail discoloration, Grade ≥3 ([2]; treatment-related, 6 mg Continuous, Regimen 2 (n = 78)): 0 no.
Patients with Nail discoloration, Grade 1 [2, 3]: 0 no.
Patients with Nail discoloration, Grade ≥3 [2, 3]: 0 no.
contribution of CYP3A4 in the total clearance (CYP3A4): 20%
